Assay results published in the supplement of paper PMC10849652.
This is one part of the list.

By UniProt entry, the sequences of proteins in these tests, tags left out. Where a name states a change or a piece, a line headed by the entry shows the natural chain unless it says otherwise.
UniProt Q9NYM9: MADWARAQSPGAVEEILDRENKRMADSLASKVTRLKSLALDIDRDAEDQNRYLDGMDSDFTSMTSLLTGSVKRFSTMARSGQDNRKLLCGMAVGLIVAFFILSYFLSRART
UniProt Q9NP55: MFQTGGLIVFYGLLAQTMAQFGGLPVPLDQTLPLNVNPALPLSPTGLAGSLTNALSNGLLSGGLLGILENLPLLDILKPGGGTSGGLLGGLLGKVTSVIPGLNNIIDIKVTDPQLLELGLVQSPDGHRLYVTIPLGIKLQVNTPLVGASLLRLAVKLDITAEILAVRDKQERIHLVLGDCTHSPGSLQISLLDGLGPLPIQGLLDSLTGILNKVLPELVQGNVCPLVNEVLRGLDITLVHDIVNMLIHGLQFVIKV
UniProt P46100: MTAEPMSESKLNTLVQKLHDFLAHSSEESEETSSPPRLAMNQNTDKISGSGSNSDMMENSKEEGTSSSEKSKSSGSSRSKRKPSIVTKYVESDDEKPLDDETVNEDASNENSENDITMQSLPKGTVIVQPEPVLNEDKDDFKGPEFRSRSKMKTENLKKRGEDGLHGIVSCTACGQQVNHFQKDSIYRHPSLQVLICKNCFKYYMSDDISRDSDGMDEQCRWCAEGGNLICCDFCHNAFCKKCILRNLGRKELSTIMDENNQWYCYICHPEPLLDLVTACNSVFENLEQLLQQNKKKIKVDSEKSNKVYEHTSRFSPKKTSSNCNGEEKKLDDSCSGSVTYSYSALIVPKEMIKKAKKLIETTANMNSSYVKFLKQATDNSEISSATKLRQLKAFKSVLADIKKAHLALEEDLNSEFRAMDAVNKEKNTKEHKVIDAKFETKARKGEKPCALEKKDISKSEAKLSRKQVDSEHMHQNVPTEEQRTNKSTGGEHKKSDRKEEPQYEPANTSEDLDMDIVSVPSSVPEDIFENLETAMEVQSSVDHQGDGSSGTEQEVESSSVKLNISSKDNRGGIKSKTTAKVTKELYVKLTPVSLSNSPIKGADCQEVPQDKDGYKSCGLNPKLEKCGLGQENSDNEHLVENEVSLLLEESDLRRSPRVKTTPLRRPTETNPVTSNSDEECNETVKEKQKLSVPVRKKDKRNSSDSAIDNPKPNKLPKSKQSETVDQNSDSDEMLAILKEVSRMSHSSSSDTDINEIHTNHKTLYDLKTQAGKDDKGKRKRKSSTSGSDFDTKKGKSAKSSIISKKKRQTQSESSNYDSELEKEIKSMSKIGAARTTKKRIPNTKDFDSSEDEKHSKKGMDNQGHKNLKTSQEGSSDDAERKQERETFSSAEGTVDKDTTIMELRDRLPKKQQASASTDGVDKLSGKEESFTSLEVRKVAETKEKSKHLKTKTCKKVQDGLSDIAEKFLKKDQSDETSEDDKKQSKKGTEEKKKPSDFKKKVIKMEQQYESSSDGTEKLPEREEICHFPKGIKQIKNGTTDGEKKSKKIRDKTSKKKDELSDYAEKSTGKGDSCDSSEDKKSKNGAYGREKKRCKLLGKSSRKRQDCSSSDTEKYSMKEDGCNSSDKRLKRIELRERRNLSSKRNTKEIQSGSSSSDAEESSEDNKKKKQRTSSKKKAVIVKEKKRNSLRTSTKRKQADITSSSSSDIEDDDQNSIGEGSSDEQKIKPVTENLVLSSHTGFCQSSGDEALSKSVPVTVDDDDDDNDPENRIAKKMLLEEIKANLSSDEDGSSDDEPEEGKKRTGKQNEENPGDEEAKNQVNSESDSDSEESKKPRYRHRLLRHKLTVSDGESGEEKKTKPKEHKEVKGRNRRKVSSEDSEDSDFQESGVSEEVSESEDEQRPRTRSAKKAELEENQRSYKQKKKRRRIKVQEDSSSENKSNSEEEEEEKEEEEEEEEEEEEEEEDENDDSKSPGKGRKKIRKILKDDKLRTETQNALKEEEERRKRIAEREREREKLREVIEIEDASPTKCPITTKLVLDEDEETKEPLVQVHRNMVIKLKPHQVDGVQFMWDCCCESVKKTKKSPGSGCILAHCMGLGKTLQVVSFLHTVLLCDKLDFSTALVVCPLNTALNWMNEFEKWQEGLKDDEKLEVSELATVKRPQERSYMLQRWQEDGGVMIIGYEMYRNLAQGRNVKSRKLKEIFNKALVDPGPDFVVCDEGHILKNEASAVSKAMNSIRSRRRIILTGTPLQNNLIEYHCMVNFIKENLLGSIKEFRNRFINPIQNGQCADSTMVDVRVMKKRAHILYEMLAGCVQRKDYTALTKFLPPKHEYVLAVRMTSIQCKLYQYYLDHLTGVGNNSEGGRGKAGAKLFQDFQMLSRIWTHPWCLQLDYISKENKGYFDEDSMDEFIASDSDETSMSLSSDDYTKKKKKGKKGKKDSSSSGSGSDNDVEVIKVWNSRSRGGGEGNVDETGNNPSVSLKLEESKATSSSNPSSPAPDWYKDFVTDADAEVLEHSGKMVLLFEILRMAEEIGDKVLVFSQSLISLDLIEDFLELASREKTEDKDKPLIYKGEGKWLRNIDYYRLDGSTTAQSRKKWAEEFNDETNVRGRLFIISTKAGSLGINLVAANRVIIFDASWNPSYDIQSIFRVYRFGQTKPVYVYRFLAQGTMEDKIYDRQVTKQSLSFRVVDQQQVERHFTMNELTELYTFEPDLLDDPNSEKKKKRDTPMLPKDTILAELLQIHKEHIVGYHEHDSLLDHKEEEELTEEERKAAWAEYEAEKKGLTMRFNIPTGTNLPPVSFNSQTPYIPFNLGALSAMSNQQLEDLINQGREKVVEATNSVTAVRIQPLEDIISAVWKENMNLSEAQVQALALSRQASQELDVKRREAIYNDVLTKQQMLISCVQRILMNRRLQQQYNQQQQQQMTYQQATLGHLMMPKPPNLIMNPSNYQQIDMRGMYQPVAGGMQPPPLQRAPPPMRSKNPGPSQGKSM
UniProt Q9BQE9, whole entry, looked up: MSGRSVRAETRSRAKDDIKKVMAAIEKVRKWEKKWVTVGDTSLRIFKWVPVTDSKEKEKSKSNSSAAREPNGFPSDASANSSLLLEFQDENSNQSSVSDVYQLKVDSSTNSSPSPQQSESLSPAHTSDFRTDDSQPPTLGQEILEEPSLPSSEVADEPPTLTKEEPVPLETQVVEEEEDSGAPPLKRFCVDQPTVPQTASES
UniProt Q96FH0: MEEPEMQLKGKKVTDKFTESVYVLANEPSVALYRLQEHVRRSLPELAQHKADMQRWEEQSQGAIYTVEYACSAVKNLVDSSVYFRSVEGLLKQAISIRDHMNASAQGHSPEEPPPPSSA
UniProt Q9BXH1: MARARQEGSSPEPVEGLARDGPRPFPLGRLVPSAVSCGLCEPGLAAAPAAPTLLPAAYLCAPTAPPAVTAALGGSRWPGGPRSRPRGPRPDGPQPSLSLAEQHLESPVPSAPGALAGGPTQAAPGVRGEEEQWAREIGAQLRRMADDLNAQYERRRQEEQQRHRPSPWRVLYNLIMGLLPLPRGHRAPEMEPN
UniProt Q7Z5W3: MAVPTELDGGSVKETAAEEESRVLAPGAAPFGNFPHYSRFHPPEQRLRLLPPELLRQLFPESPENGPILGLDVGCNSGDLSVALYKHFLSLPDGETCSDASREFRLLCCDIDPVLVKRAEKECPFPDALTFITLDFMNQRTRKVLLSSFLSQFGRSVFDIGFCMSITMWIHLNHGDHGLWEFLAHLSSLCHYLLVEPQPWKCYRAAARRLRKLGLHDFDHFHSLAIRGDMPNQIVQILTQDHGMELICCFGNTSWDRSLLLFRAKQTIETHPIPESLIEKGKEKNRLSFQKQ
UniProt P54252: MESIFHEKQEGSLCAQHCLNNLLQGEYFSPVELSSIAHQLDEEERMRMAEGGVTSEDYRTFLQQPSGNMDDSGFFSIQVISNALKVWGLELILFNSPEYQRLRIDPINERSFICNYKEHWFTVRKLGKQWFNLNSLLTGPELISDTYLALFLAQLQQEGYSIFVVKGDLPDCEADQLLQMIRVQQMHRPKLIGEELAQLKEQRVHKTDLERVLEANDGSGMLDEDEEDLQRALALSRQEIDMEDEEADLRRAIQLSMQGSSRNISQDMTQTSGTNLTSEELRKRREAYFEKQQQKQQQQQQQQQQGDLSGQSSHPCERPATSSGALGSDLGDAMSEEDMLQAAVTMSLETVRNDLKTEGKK
UniProt Q9HB09: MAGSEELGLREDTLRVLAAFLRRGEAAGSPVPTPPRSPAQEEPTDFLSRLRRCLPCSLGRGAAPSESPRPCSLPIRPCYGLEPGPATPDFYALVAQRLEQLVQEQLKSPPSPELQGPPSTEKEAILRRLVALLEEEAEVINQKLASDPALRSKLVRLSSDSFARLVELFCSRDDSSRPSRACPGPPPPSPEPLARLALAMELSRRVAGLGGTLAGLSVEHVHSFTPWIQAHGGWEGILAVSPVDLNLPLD
UniProt Q96B45: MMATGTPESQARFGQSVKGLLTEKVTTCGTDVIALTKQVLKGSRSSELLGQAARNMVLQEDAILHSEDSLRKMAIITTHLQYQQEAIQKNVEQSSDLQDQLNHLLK
UniProt Q5T6C5: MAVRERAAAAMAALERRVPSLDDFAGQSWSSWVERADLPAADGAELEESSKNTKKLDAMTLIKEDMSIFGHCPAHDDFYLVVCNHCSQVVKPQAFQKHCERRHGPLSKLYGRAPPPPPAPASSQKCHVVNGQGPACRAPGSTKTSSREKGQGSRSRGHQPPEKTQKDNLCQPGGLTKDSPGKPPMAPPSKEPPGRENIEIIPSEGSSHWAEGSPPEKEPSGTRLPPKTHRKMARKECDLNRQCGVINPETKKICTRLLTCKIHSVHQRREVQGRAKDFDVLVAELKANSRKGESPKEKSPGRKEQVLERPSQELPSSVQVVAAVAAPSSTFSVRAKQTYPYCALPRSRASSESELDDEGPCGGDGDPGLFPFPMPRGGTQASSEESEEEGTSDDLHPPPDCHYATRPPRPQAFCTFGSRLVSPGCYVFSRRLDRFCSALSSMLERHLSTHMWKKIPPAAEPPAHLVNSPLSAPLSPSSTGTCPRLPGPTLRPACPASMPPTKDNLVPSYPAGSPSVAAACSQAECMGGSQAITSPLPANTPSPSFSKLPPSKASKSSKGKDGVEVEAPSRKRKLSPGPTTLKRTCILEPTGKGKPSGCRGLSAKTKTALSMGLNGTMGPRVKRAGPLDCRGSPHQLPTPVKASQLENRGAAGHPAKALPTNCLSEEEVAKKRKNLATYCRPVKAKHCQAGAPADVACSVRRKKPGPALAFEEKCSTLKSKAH
UniProt O43505: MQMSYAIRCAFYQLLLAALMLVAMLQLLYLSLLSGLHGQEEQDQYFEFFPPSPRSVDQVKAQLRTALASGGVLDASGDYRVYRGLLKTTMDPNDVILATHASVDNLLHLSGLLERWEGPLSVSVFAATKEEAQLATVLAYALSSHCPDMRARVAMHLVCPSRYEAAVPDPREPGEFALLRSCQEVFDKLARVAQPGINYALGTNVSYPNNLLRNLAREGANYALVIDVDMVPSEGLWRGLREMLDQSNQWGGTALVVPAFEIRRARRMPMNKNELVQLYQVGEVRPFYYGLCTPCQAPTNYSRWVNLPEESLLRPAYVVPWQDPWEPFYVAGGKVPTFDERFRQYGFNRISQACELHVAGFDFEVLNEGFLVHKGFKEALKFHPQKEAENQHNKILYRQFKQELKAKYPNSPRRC
UniProt Q8TDL5: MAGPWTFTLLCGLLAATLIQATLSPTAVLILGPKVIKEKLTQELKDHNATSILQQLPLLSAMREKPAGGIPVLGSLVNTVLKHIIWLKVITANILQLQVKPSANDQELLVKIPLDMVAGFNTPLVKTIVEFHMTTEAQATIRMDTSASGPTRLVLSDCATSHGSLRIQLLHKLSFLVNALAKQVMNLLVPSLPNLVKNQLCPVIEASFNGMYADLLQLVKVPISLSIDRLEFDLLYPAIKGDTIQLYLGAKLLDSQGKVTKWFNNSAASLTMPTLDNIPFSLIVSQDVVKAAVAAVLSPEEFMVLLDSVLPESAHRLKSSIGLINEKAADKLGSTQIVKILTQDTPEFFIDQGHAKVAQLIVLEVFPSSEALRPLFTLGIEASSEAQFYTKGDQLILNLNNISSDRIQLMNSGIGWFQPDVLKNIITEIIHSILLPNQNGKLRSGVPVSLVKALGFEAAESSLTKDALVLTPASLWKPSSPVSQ
UniProt Q13825: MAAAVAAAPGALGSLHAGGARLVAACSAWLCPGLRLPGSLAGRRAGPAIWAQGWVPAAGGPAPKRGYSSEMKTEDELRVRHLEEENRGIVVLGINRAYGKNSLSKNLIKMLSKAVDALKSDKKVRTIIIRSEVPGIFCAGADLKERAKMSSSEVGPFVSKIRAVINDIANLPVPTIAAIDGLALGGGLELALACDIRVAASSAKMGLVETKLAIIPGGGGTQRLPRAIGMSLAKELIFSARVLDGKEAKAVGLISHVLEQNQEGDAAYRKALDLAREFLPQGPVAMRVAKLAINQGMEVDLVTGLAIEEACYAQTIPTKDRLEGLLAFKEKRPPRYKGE

Legend:
Test in all cases: log2 fold change, soluble protein after heating vs DMSO (PISA); higher = thermal stabilisation; K562 cells, 10 uM, 30 min; active = over 0.2 and 3.5 SD of the protein, either way, in both replicates (recomputed)
[1] = compound: NC(=O)Nc1cc(-c2cccc(F)c2)sc1C(=O)N[C@H]1CCCNC1
Outline: (§1)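 Aliquots of K562 cells (2×10^6 cells/mL) treated with 10 μM compound for 30 min were heated for 3 min over 48°C-58°C. After pooling and extraction in PBS with 0.5% NP-40 at 4°C, soluble protein from a 21,000xg, 90 min spin was quantified by TMTpro 16plex LC-MS/MS with channel sums equalised. Thermal stability is expressed against control samples, from duplicates, as a log2 fold change.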

[2] = compound: NC(=O)c1cnc(N[C@@H]2CCCC[C@@H]2N)nc1Nc1cccc(-n2nccn2)c1
Outline: as §1

[3] = compound: NC1(c2ccc(-c3nc4ccn5c(=O)[nH]nc5c4cc3-c3ccccc3)cc2)CCC1
Outline: as §1

[4] = compound: NCC(=O)Nc1ccc(-n2nc(C(F)(F)F)cc2-c2ccc3c(ccc4ccccc43)c2)cc1
Outline: as §1

entinostat = compound: Nc1ccccc1NC(=O)c1ccc(CNC(=O)OCc2cccnc2)cc1 [entinostat]
Outline: as §1

citarinostat = compound: O=C(CCCCCCNC(=O)c1cnc(N(c2ccccc2)c2ccccc2Cl)nc1)NO [citarinostat]
Outline: as §1

silmitasertib = compound: O=C(O)c1ccc2c(c1)nc(Nc1cccc(Cl)c1)c1ccncc12 [silmitasertib]
Outline: as §1

[5] = compound: O=C1NC(=O)C(c2cnc3ccccn23)=C1c1cn2c3c(cc(F)cc13)CN(C(=O)N1CCCCC1)CC2
Outline: as §1

[6] = compound: c1cc(OCCN2CCCCC2)cc(-c2n[nH]c3ccc(-c4nnc[nH]4)cc23)c1
Outline: as §1

entospletinib = compound: c1cn2cc(-c3ccc4cn[nH]c4c3)nc(Nc3ccc(N4CCOCC4)cc3)c2n1 [entospletinib]
Outline: as §1

vorinostat = compound: O=C(CCCCCCC(=O)Nc1ccccc1)NO [vorinostat]
Outline: as §1

Measured: log2 fold change

AURKAIP1 (UniProt Q9NWT8)
inactive: [1] 0.113 | [2] 0.045 | [3] 0.239 | [4] 0.143 | entinostat 0.028 | citarinostat -0.088 | silmitasertib 0.044 | [5] 0.339 | [6] -0.156 | entospletinib 0.068

BCL9 (UniProt O00512)
inactive: [1] -0.026 | [2] -0.022 | [4] -0.206 | entinostat -0.088 | vorinostat -0.056 | citarinostat 0.055 | [5] -0.149 | [6] 0.03 | entospletinib 0.036

B4GALT4 (UniProt O60513)
inactive: [1] -0.085 | entinostat 0.146 | vorinostat -0.085

BET1L (UniProt Q9NYM9)
inactive: [1] -0.051 | [2] -0.033 | [3] -0.062 | [4] 0.014 | entinostat -0.203 | citarinostat -0.002 | silmitasertib 0.063 | [5] -0.028 | [6] 0.052 | entospletinib 0.089

Reprinted at random: 2 records from the list
B4GALT4 (UniProt O60513)
inactive: [1] -0.085 | entinostat 0.146 | vorinostat -0.085

BCL9 (UniProt O00512)
inactive: [1] -0.026 | [2] -0.022 | [4] -0.206 | entinostat -0.088 | vorinostat -0.056 | citarinostat 0.055 | [5] -0.149 | [6] 0.03 | entospletinib 0.036

Carrying on:

BRCA1 isoform 7 (UniProt P38398)
inactive: [1] -0.477 | [3] -0.057 | [4] 0.103 | entinostat -0.274 | silmitasertib -0.219

AUNIP isoform 2 (UniProt Q9H7T9)
inactive: [1] -0.194 | [2] -0.037 | [4] 0.073 | entinostat 0.003

BPIFA1 (UniProt Q9NP55)
inactive: [1] 1.48 | [3] -0.045 | entinostat -0.061 | citarinostat 0.188 | silmitasertib -0.312 | [6] 0.708 | entospletinib -0.121

ATXN7L3 isoform 2 (UniProt Q14CW9)
inactive: [1] 0.182 | [2] 0.033 | [3] 0.207 | entinostat -0.346 | citarinostat -0.087 | silmitasertib -0.373 | [6] 0.051

ATRX (UniProt P46100)
inactive: [2] 0.08 | vorinostat -0.016

ATXN2L (UniProt H3BUF6)
inactive: [3] -0.051 | vorinostat -0.121 | citarinostat -0.058 | silmitasertib -0.012 | [6] 0.072 | entospletinib -0.102

BCL7B (UniProt Q9BQE9)
inactive: [3] 0.098 | [4] -0.072 | silmitasertib -0.325

BCAS3 isoform 8 (UniProt Q9H6U6)
inactive: [2] 0.015 | vorinostat 0.021 | citarinostat -0.104 | [6] -0.199 | entospletinib 0.127

BRAF, A0A2R8Y8E0
inactive: [2] 0.214 | [3] -0.31 | silmitasertib -0.064

BORCS8 (UniProt Q96FH0)
inactive: citarinostat -0.054 | [6] 0.002 | entospletinib 0.242

BBC3 (UniProt Q9BXH1)
inactive: [2] -0.093 | [3] 0.027 | [4] -0.026 | vorinostat -0.067 | citarinostat 0.04 | silmitasertib 0.053 | [5] -0.128 | [6] -0.062 | entospletinib 0.036

BCDIN3D (UniProt Q7Z5W3)
inactive: [2] -0.048 | citarinostat 0.228 | [6] 0.068 | entospletinib -0.066

BAP18 isoform 3 (UniProt Q8IXM2)
inactive: [3] -0.042 | vorinostat 0.192 | silmitasertib -0.119

BLVRA (UniProt C9J1E1)
inactive: [2] -0.28 | [3] -0.198 | [4] -0.077 | vorinostat 0.018 | silmitasertib 0.138

AVEN (UniProt Q9NQS1)
inactive: [4] 0.097 | vorinostat -0.17 | citarinostat 0.082 | [5] -0.033 | [6] -0.122 | entospletinib 0.016

BAHD1 (UniProt Q8TBE0)
inactive: [3] -0.084 | vorinostat -0.136 | citarinostat -0.016 | silmitasertib 0.08 | [6] -0.075 | entospletinib 0.012

BSCL2 isoform 4 (UniProt Q96G97)
inactive: [2] -0.197 | [3] -0.013 | [4] 0.007 | vorinostat 0.074 | silmitasertib 0.172 | [5] 0.033

BCL7C (UniProt Q8WUZ0)
inactive: [3] -0.044 | silmitasertib -0.141

ATXN3 isoform 1 (UniProt P54252)
inactive: [2] -0.256 | [3] -0.137 | [4] -0.019 | vorinostat -0.003 | citarinostat -0.01 | silmitasertib 0.093 | [6] -0.015

BNIP3L (UniProt O60238)
inactive: [3] -0.004 | [4] 0.017 | citarinostat 0.061 | silmitasertib 0 | [6] -0.012 | entospletinib -0.125

BCL2L12 (UniProt Q9HB09)
inactive: [2] 0.056 | [3] -0.156 | [4] 0.011 | vorinostat -0.167 | citarinostat 0.032 | silmitasertib 0.093 | [5] 0.047 | [6] -0.134 | entospletinib -0.035

BCR (UniProt P11274)
inactive: [3] 0.364 | entinostat -0.099 | vorinostat 0.267 | citarinostat -0.007 | silmitasertib 0.399 | [5] 0.041 | [6] -0.278 | entospletinib 0.341

BORCS7 (UniProt Q96B45)
inactive: [2] -0.077 | [3] -0.098 | [4] 0.07 | vorinostat -0.037 | citarinostat 0.066 | silmitasertib 0.04 | [6] -0.083 | entospletinib -0.015

BPNT1 (UniProt A6NF51)
inactive: [3] 0.011 | [4] 0.04 | citarinostat -0.024 | silmitasertib -0.035 | [5] -0.132 | [6] 0.098 | entospletinib -0.056

BORA (UniProt Q6PGQ7)
inactive: [1] 0.488 | entinostat -0.085 | [5] -0.01

BFAR (UniProt Q9NZS9)
inactive: [3] -0.114 | [4] 0.136 | silmitasertib 0.133 | [5] -0.008

AXIN1 (UniProt O15169)
inactive: [4] -0.174 | vorinostat 0.21

BIN1 (UniProt O00499)
inactive: [3] 0.109 | [4] -0.205 | silmitasertib -0.091

AURKB isoform 5 (UniProt Q96GD4)
inactive: [2] -0.107 | [4] -0.066 | citarinostat -0.19 | [6] 0.137 | entospletinib 0.339

ATXN7L2 (UniProt Q5T6C5)
inactive: [5] 0.026

B4GAT1 (UniProt O43505)
inactive: [2] 0.093 | [4] 0.105 | vorinostat 0.109 | citarinostat 0.114 | [5] 0.036 | [6] 0 | entospletinib -0.061

BRMS1 (UniProt Q9HCU9)
inactive: [2] 0.15 | [3] 0.121 | vorinostat -0.053 | citarinostat -0.097 | silmitasertib -0.042 | [5] -0.033 | [6] -0.178

BPTF (UniProt Q12830)
inactive: [1] 0.141 | entinostat -0.028 | [5] 0.053

BNIP2 (UniProt H7C096)
inactive: [3] -0.008 | citarinostat 0.332 | silmitasertib 0.178 | [6] -0.041 | entospletinib -0.069

BPIFB1 (UniProt Q8TDL5)
inactive: [1] 1.73 | entinostat 0.257 | citarinostat 0.011 | [6] -0.141 | entospletinib -0.11

BOD1 (UniProt Q96IK1)
inactive: [3] 0.019 | vorinostat -0.091 | silmitasertib -0.043

AUH (UniProt Q13825)
inactive: [2] 0.011 | [3] -0.023 | [4] 0.103 | vorinostat 0.018 | citarinostat -0.103 | silmitasertib -0.061 | [6] 0.003
